Taken from: PubChem BioAssay AID1259424 (University of Nebraska Medical Center, 2018)

- Test: 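Seek colon cancer survival genes behaving like KSR1, using a six-gene signature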 (primary screen)
- Cell system: human HCT116 colon cancer cells
- Reagent: siRNA pool against human genes, 50 nM
- Detection: 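Log2 levels of six mRNAs (branched-DNA multiplex), adjusted by two reference genes and the non-targeting median, then scored against the average KSR1 knockdown pattern as Pearson r and euclidean distance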
- Direction: mean correlation with KSR1 profile: higher = expression change more like KSR1 knockdown
This is a random part of about 14,000 reagents tested. 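Higher correlation or smaller distance means closer resemblance to KSR1 loss; control wells, including KSR1 knockdowns, recur on many plates.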 Further read-outs or replicates are left out here. Not stated in the record: the time to read-out.

TOX (thymocyte selection associated high mobility group box) | mean correlation with KSR1 profile = -0.219
TXNRD3 (thioredoxin reductase 3) | mean correlation with KSR1 profile = 0.17
PRDM12 (PR/SET domain 12) | mean correlation with KSR1 profile = 0.511
SCN10A (sodium voltage-gated channel alpha subunit 10) | mean correlation with KSR1 profile = 0.127
OMP (olfactory marker protein) | mean correlation with KSR1 profile = -0.142
LRP12 (LDL receptor related protein 12) | mean correlation with KSR1 profile = -0.0561
IRS1 (insulin receptor substrate 1) | mean correlation with KSR1 profile = 0.237
RND2 (Rho family GTPase 2) | mean correlation with KSR1 profile = -0.284
FECH (ferrochelatase) | mean correlation with KSR1 profile = 0.0553
RFC5 (replication factor C subunit 5) | mean correlation with KSR1 profile = -0.0193
RHOC (ras homolog family member C) | mean correlation with KSR1 profile = -0.552
RAB35 (RAB35, member RAS oncogene family) | mean correlation with KSR1 profile = -0.384
AGBL2 (AGBL carboxypeptidase 2) | mean correlation with KSR1 profile = 0.609
COA8 (cytochrome c oxidase assembly factor 8) | mean correlation with KSR1 profile = 0.803
RNASEH2A (ribonuclease H2 subunit A) | mean correlation with KSR1 profile = -0.0414
CIZ1 (CDKN1A interacting zinc finger protein 1) | mean correlation with KSR1 profile = 0.52
ADAP2 (ArfGAP with dual PH domains 2) | mean correlation with KSR1 profile = 0.426
SYCP2 (synaptonemal complex protein 2) | mean correlation with KSR1 profile = 0.0409
NT5DC2 (5'-nucleotidase domain containing 2) | mean correlation with KSR1 profile = 0.324
LPA (lipoprotein(a)) | mean correlation with KSR1 profile = 0.432
FRS2 (fibroblast growth factor receptor substrate 2) | mean correlation with KSR1 profile = 0.0546
P3H3 (prolyl 3-hydroxylase 3) | mean correlation with KSR1 profile = 0.017
IRF2 (interferon regulatory factor 2) | mean correlation with KSR1 profile = 0.255
WBP1L (WW domain binding protein 1 like) | mean correlation with KSR1 profile = -0.347
SOBP (sine oculis binding protein homolog) | mean correlation with KSR1 profile = 0.279
HDHD2 (haloacid dehalogenase like hydrolase domain containing 2) | mean correlation with KSR1 profile = -0.712
FBXO22 (F-box protein 22) | mean correlation with KSR1 profile = -0.252
TMEM47 (transmembrane protein 47) | mean correlation with KSR1 profile = -0.311
PLEKHM2 (pleckstrin homology and RUN domain containing M2) | mean correlation with KSR1 profile = -0.464
GAREM1 (GRB2 associated regulator of MAPK1 subtype 1) | mean correlation with KSR1 profile = -0.549
PSMA2 (proteasome 20S subunit alpha 2) | mean correlation with KSR1 profile = -0.0558
GPR183 (G protein-coupled receptor 183) | mean correlation with KSR1 profile = 0.963
NDUFA10 (NADH:ubiquinone oxidoreductase subunit A10) | mean correlation with KSR1 profile = 0.503
GCG (glucagon) | mean correlation with KSR1 profile = 0.593
NTRK3 (neurotrophic receptor tyrosine kinase 3) | mean correlation with KSR1 profile = 0.555
PAK1IP1 (PAK1 interacting protein 1) | mean correlation with KSR1 profile = -0.125
